# Results reported in the supplement of paper PMC8728848.
# This is one part of the list.
# Key:
# Assay in all cases: glycan array binding signal (z-score within array); higher = stronger binding
# Settings in all cases: glycan notation: IUPAC condensed, linker removed
# [1] = biological target: Man(a1-2)Man(a1-3)[Man(a1-2)Man(a1-6)]Man
# Summary of the method: (§1)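 The binding signal is a Z-score computed within each array. Data were drawn from 3228 arrays in the Consortium for Functional Glycomics database, restricted to those with a known protein sequence. Scores were averaged over arrays of the same protein sequence at different concentrations or buffers, and over linkers, and negative values can be taken as non-binding.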
# [2] = biological target: Man(a1-2)Man(a1-3)[Man(a1-2)Man(a1-6)]Man(a1-6)[Man(a1-2)Man(a1-2)Man(a1-3)]Man
# Summary of the method: as §1
# [3] = biological target: Man(a1-2)Man(a1-3)[Man(a1-2)Man(a1-6)]Man(a1-6)[Man(a1-2)Man(a1-2)Man(a1-3)]Man(b1-4)GlcNAc(b1-4)GlcNAc
# Summary of the method: as §1
# [4] = biological target: Man(a1-2)Man(a1-3)[Man(a1-6)]Man(a1-6)[Man(a1-2)Man(a1-3)]Man(b1-4)GlcNAc(b1-4)GlcNAc
# Summary of the method: as §1
# [5] = biological target: Man(a1-2)Man(a1-6)[Man(a1-3)]Man(a1-6)[Man(a1-2)Man(a1-2)Man(a1-3)]Man
# Summary of the method: as §1
# [6] = biological target: Man(a1-2)Man(a1-6)[Man(a1-3)]Man(a1-6)[Man(a1-2)Man(a1-2)Man(a1-3)]Man(b1-4)GlcNAc(b1-4)GlcNAc
# Summary of the method: as §1
# Man(a1-3)[Man(a1-6)]Man = biological target: Man(a1-3)[Man(a1-6)]Man
# Summary of the method: as §1
# [7] = biological target: Man(a1-3)[Man(a1-6)]Man(a1-6)[Man(a1-2)Man(a1-3)]Man(b1-4)GlcNAc(b1-4)GlcNAc
# Summary of the method: as §1
# [8] = biological target: Man(a1-3)[Man(a1-6)]Man(a1-6)[Man(a1-3)]Man
# Summary of the method: as §1
# [9] = biological target: Man(a1-3)[Man(a1-6)]Man(a1-6)[Man(a1-3)]Man(b1-4)GlcNAc(b1-4)GlcNAc
# Summary of the method: as §1
# [10] = biological target: Man(a1-3)[Man(a1-6)]Man(b1-4)GlcNAc(b1-4)GlcNAc
# Summary of the method: as §1
# [11] = biological target: Man(a1-3)[Man(a1-6)]Man(b1-4)GlcNAc(b1-4)[Fuc(a1-6)]GlcNAc
# Summary of the method: as §1
# Man(a1-6)Man = biological target: Man(a1-6)Man
# Summary of the method: as §1
# Man(b1-4)GlcNAc = biological target: Man(b1-4)GlcNAc
# Summary of the method: as §1
# MurNAc(b1-4)GlcNAc = biological target: MurNAc(b1-4)GlcNAc
# Summary of the method: as §1
# Neu5Ac(a2-3)Gal = biological target: Neu5Ac(a2-3)Gal
# Summary of the method: as §1
# [12] = biological target: Neu5Ac(a2-3)Gal(b1-3)GalNAc
# Summary of the method: as §1
# [13] = biological target: Neu5Ac(a2-3)Gal(b1-3)GalNAc(b1-3)Gal(a1-4)Gal(b1-4)Glc
# Summary of the method: as §1
# [14] = biological target: Neu5Ac(a2-3)Gal(b1-3)GalNAc(b1-4)[Neu5Ac(a2-3)]Gal(b1-4)Glc
# Summary of the method: as §1
# [15] = biological target: Neu5Ac(a2-3)Gal(b1-3)GalNAc(b1-4)[Neu5Ac(a2-8)Neu5Ac(a2-3)]Gal(b1-4)Glc
# Summary of the method: as §1
# [16] = biological target: Neu5Ac(a2-3)Gal(b1-3)GalNAc6S
# Summary of the method: as §1
# [17] = biological target: Neu5Ac(a2-3)Gal(b1-3)GlcNAc
# Summary of the method: as §1
# [18] = biological target: Neu5Ac(a2-3)Gal(b1-3)GlcNAc(b1-2)Man
# Summary of the method: as §1
# [19] = biological target: Neu5Ac(a2-3)Gal(b1-3)GlcNAc(b1-2)Man(a1-3)[GlcNAc(b1-4)][Neu5Ac(a2-3)Gal(b1-3)GlcNAc(b1-2)Man(a1-6)]Man(b1-4)GlcNAc(b1-4)GlcNAc
# Summary of the method: as §1
# [20] = biological target: Neu5Ac(a2-3)Gal(b1-3)GlcNAc(b1-2)Man(a1-3)[Neu5Ac(a2-3)Gal(b1-3)GlcNAc(b1-2)Man(a1-6)]Man(b1-4)GlcNAc(b1-4)GlcNAc
# Summary of the method: as §1
# [21] = biological target: Neu5Ac(a2-3)Gal(b1-3)GlcNAc(b1-3)Gal(b1-3)GlcNAc
# Summary of the method: as §1
# [22] = biological target: Neu5Ac(a2-3)Gal(b1-3)GlcNAc(b1-3)Gal(b1-4)GlcNAc
# Summary of the method: as §1
# [23] = biological target: Neu5Ac(a2-3)Gal(b1-3)GlcNAc(b1-3)GalNAc
# Summary of the method: as §1
# [24] = biological target: Neu5Ac(a2-3)Gal(b1-3)GlcNAc(b1-4)Gal(b1-4)Glc
# Summary of the method: as §1
# [25] = biological target: Neu5Ac(a2-3)Gal(b1-3)GlcNAc(b1-6)GalNAc
# Summary of the method: as §1
# [26] = biological target: Neu5Ac(a2-3)Gal(b1-3)GlcNAc6S
# Summary of the method: as §1
# [27] = biological target: Neu5Ac(a2-3)Gal(b1-3)[Fuc(a1-4)]GlcNAc
# Summary of the method: as §1
# [28] = biological target: Neu5Ac(a2-3)Gal(b1-3)[Fuc(a1-4)]GlcNAc(b1-3)Gal(b1-3)[Fuc(a1-4)]GlcNAc
# Summary of the method: as §1
# [29] = biological target: Neu5Ac(a2-3)Gal(b1-3)[Fuc(a1-4)]GlcNAc(b1-3)Gal(b1-4)[Fuc(a1-3)]GlcNAc
# Summary of the method: as §1
# [30] = biological target: Neu5Ac(a2-3)Gal(b1-3)[GlcNAc(b1-6)]GalNAc
# Summary of the method: as §1
# [31] = biological target: Neu5Ac(a2-3)Gal(b1-3)[Neu5Ac(a2-6)]GalNAc
# Summary of the method: as §1
# [32] = biological target: Neu5Ac(a2-3)Gal(b1-3)[Neu5Ac(a2-6)]GlcNAc(b1-3)[Fuc(a1-3)[Gal(b1-4)]GlcNAc(b1-6)]Gal(b1-4)Glc
# Summary of the method: as §1
binder,measurement,setting,value
"Clec12b (Mus musculus), Q149M0 (protein) MSDEVTYATLMLQDSARVRGNQDGNNLRKEGHPAQSSLWRGAALSLMTLCLVLVTGLVTLATMFLQVSNDINSDSEKLSQLQKSIHPQQDNLSESLNSSRKSLTEESLQSQISALLERQEQMATKLCKEFLIHASDHKCNPCPKTWQWYGNSCYYFSINEEKSWSDSRKDCIDKNATLVKIDSTEERDLLQSQLSLTFSFFWLGLSWNSSGRNWLWEDGSFPPPTLFSDKELASFNGSRDCAYFERGNIYASRCSAEIPWICEKTASLVKTEDLD",glycan array binding signal (z-score),[1],-0.681
same,glycan array binding signal (z-score),[2],-0.118
same,glycan array binding signal (z-score),[3],-0.409
same,glycan array binding signal (z-score),[4],-0.283
same,glycan array binding signal (z-score),[5],-0.526
same,glycan array binding signal (z-score),[6],-0.428
same,glycan array binding signal (z-score),Man(a1-3)[Man(a1-6)]Man,0.423
same,glycan array binding signal (z-score),[7],-0.327
same,glycan array binding signal (z-score),[8],1.62
same,glycan array binding signal (z-score),[9],-0.663
same,glycan array binding signal (z-score),[10],0.135
same,glycan array binding signal (z-score),[11],-0.571
same,glycan array binding signal (z-score),Man(a1-6)Man,0.751
same,glycan array binding signal (z-score),Man(b1-4)GlcNAc,0.308
same,glycan array binding signal (z-score),MurNAc(b1-4)GlcNAc,-0.784
same,glycan array binding signal (z-score),Neu5Ac(a2-3)Gal,-0.719
same,glycan array binding signal (z-score),[12],-0.664
same,glycan array binding signal (z-score),[13],-0.593
same,glycan array binding signal (z-score),[14],-0.389
same,glycan array binding signal (z-score),[15],1.27
same,glycan array binding signal (z-score),[16],0.046
same,glycan array binding signal (z-score),[17],-0.346
same,glycan array binding signal (z-score),[18],-0.3
same,glycan array binding signal (z-score),[19],-0.101
same,glycan array binding signal (z-score),[20],0.287
same,glycan array binding signal (z-score),[21],1.37
same,glycan array binding signal (z-score),[22],-0.487
same,glycan array binding signal (z-score),[23],-0.412
same,glycan array binding signal (z-score),[24],-0.673
same,glycan array binding signal (z-score),[25],-0.198
same,glycan array binding signal (z-score),[26],-0.313
same,glycan array binding signal (z-score),[27],-0.719
same,glycan array binding signal (z-score),[28],-0.54
same,glycan array binding signal (z-score),[29],-0.44
same,glycan array binding signal (z-score),[30],-0.722
same,glycan array binding signal (z-score),[31],2.43
same,glycan array binding signal (z-score),[32],-0.695

# Some of the entries so far, bar-delimited:
binder | measurement | setting | value
Clec12b (Mus musculus), Q149M0 (protein) MSDEVTYATLMLQDSARVRGNQDGNNLRKEGHPAQSSLWRGAALSLMTLCLVLVTGLVTLATMFLQVSNDINSDSEKLSQLQKSIHPQQDNLSESLNSSRKSLTEESLQSQISALLERQEQMATKLCKEFLIHASDHKCNPCPKTWQWYGNSCYYFSINEEKSWSDSRKDCIDKNATLVKIDSTEERDLLQSQLSLTFSFFWLGLSWNSSGRNWLWEDGSFPPPTLFSDKELASFNGSRDCAYFERGNIYASRCSAEIPWICEKTASLVKTEDLD | glycan array binding signal (z-score) | Man(a1-6)Man | 0.751
same | glycan array binding signal (z-score) | Man(b1-4)GlcNAc | 0.308
same | glycan array binding signal (z-score) | MurNAc(b1-4)GlcNAc | -0.784
same | glycan array binding signal (z-score) | Neu5Ac(a2-3)Gal | -0.719
same | glycan array binding signal (z-score) | [12] | -0.664
same | glycan array binding signal (z-score) | [13] | -0.593
same | glycan array binding signal (z-score) | [14] | -0.389
same | glycan array binding signal (z-score) | [15] | 1.27
same | glycan array binding signal (z-score) | [16] | 0.046
